Experimental data taken from patent US20030157491A1, “HarA polypeptides and nucleic acids, and related methods and uses thereof” (priority 2002, published 2003).
Some of these results come from one statement about several compounds together. At least one compound was matched to its structure with a doubt left.

Test system: BS1 (harA::cat)
Assay: MIC by broth microdilution, B. subtilis JH642 harA disruption mutant
Type: cell-based, Bacillus subtilis
Text: A B. subtilis strain expressing a harA::CAT insertion mutant was produced by single-crossover recombination using integrative plasmid pJPM1. Plasmid pJPM1 is a pSK^− derivative that carries the cat gene of S. aureus plasmid pC194 that confers chloramphenicol resistance in B. subtilis. […] However, if any DNA fragment providing a region of homology with the B. subtilis chromosome is inserted into this plasmid, it acquires the ability to transform B. subtilis competent cells to cat resistance at high frequency. The integration occurs via a Campbell-type (single crossover) recombination event that results in the duplication of the cloned region at either end of the vector. Reversal of the integration event leads to precise excision of the plasmid and restoration of gene structure on the chromosome. An internal fragment of the B. subtilis harA gene was excised using EcoRV and EcoRI and subcloned into compatible sites in pJPM1 creating plasmid pJPM1-expZ1. Plasmid pJPM1-expZ1 was used to transform the naturally competent B. subtilis strain JH642 (hygromycin-resistant) and transformants selected using chloramphenicol (5 μmg/mL). […]
Quantitative assessment of resistance was performed by a broth microdilution method using cation-supplemented Mueller-Hinton broth containing antibiotics, the concentration of which varied in two-fold increments. […]

| Molecule | decrease in the MIC when the harA gene is disrupted |
| --- | --- |
| 5-deoxy-5[4-[(2,6-dideoxy-β-D-erythro-hexofuranos-5-ulos-1-yl)oxy]-3-hydroxyphenyl]-2-methyl-1-oxo-2-(E)-propenyl]amino]-1,2-O-methylene-D-neo-inositol, (E)-O-[(3-chlorophenyl)methyl]oxime [Compound 2] | greater than 100 fold |
| C/C(=C\c1ccc(O[C@H]2C[C@H](O)[C@@H](/C(C)=C/COc3ccc(Cl)cc3Cl)O2)c(O)c1)C(=O)N[C@@H]1[C@H](O)[C@@H](O)[C@H]2OCO[C@H]2[C@@H]1O [Compound 1] | greater than 100 fold |
